Library screening results

Values are the deposited “Percent Effect”, in %.
The record does not define 0% and 100%; most values in the screen are far below 50% and negative numbers occur (in some assays of this library far below -100).
Compounds were drawn at random from those tested, without regard to their results.
Two or more numbers in one place are separate tests of the same structure; such repeats can differ widely.

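Viability assay of Plasmodium falciparum sporozoites; the read-out is not stated. The concentration is filed as 10 mM, unlikely as a test dose, so the dose is not known. Higher reads as lower viability (inferred: compounds with an IC50 in retests scored well above the rest). Strong results were mostly tested again. Of about 34,000 compounds tested this way, about 280 (0.84%) reached 50% or more in at least one test.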

| compound | Percent Effect |
|---|---|
| `COc1ccc(OCC(O)CN2CCN(c3nccs3)CC2)cc1` (stereo not drawn) | -3.676 |
| `Cc1c2ncn(CC(=O)NC(C)C)c(=O)c2nn1C` | 1.959 |
| `CC(C)Nc1nc(O)cc(C2CC(=O)N(Cc3ccccc3)C2)n1` (stereo not drawn) | 6.825 |
| `Cc1cn2c(n1)CCC(NC(=O)c1ccc(S(C)(=O)=O)o1)C2` (stereo not drawn) | 4.601 |
| `[H][C@]12CCN[C@@]1([H])CN(C(=O)CC(C)(C)C)C2` | -2.997 |
| `CN1CCN(Cc2cnc3n2CCN(C(=O)N2CCCC2)C3)CC1` | 1.852 |
| `CC1(C)Cc2nc(C(C)(C)C)ncc2C(NC(=O)CN)C1` (stereo not drawn) | -9.848 |
| `O=C(O)C(F)(F)F.O=C(O)C(F)(F)F.[H][C@@]12OCCN(Cc3ccoc3)[C@@]1([H])CC[C@H]2OCc1ccncc1` | -14.86 |
| `Cc1nc(COC[C@@H]2CCC[C@@]23CN(C)CCO3)cs1.O=C(O)C(F)(F)F` | -18.43 |
| `COCCCNC(=O)N1CCC(CNC(=O)c2cnn(C)c2)CC1` | 4.7 |
| `CS(=O)(=O)c1nccn1CCOc1ccccc1F` | -11.88 |
| `CC(=O)N1CCC2(CC1)COCCN2Cc1ccc(F)cc1.O=C(O)C(F)(F)F` | -1.143 |
| `O=C(O)C(F)(F)F.O=C(O)C(F)(F)F.[H][C@]12CC(=O)N(Cc3cccc(C)n3)[C@@]1([H])CCN2Cc1nccs1` | 4.332 |
| `CN(C)C(CNS(=O)(=O)c1cnn(C)c1)c1cccc(F)c1` (stereo not drawn) | 10.54 |
| `CCOCC(=O)N1C[C@@H](O)[C@H](N2CCN(c3ccccc3)CC2)C1` | 2.913 |
| `O=C(NCCNS(=O)(=O)c1ccc2c(c1)CCCC2)c1ccoc1` | 13.52 |
| `CC(C)CNC(=O)NC(=O)C(C)Nc1cccc(CN2CCOC2=O)c1` (stereo not drawn) | 5.177 |
| `CCOc1ccc(-c2cc(=O)n3c(n2)CCCCC3)cc1` | -4.121 |
| `[H][C@]12CCN(c3cc(OC)ncn3)[C@@]1([H])C[C@@H](C(=O)NCCOC)O2` | 14.33 |
| `CCc1ccc(C(=O)N2CCCC3(CCCC(=O)N3C)C2)cc1` (stereo not drawn) | 1.625 |
| `Cc1nc(C)n(CC2CCCN2CCCOc2ccc(C#N)cc2)n1` (stereo not drawn) | -0.09859 |
| `Cc1nnc(CN2CCCC(CCc3ccccc3C(F)(F)F)C2)o1` (stereo not drawn) | -6.243 |
| `O=C(O)C(F)(F)F.[H][C@@]12CN(Cc3cccc(C)c3)C[C@]1([H])OCCN2CC(=O)N(C)C` | 13.49 |
| `Cc1nnc2n1CCN(CCOc1ccc(C(C)(C)C)cc1)C2` | -2.961 & -7.352 & -12.67 |
| `CCN1CCN(c2ncc(-c3cc(C)no3)c(-c3ccco3)n2)CC1` | 8.201 |
| `Cc1cnc(CCNC(=O)C2CCN(S(=O)(=O)c3ccc(F)cc3)C2)s1` (stereo not drawn) | 3.849 |
| `CCS(=O)(=O)N1CCC2(CC1)CC(Oc1ccccn1)CO2.O=C(O)C(F)(F)F` (stereo not drawn) | 0.3352 |
| `COc1ccc(CCN2CCCC(CN(C)Cc3ccc(C)o3)C2)cc1` (stereo not drawn) | -7.843 |
| `O=C(c1cnccn1)N1CCc2ncnc(C3CCOC3)c2CC1` (stereo not drawn) | -12.41 |
| `CN(C)c1cc(CNC(=O)c2ccccc2S(C)(=O)=O)ccn1` | 10.92 |
| `Cc1nonc1CN(C)c1nc(-c2ccco2)nc2c1CCN(C)CC2` | -7.162 |
| `O=C(O)CC(O)(CC(=O)O)C(=O)O.[H][C@@]12CC[C@@](O)(c3ccc(C)cn3)[C@]1([H])CN(Cc1cccc(Cl)c1Cl)C2` | -11.73 |
| `O=C(O)C(F)(F)F.O=C(O)C(F)(F)F.[H][C@@]12CN(Cc3cccs3)C[C@]1([H])OCCN2CC1CCCO1` (stereo partly drawn) | -5.706 |
| `Cc1cnn(CC2CCN(CC(O)COc3ccc(F)cc3)CC2)c1` (stereo not drawn) | 4.267 |
| `CNc1ncc(CN2CCC(CCc3ccccc3)CC2)cn1` | 11.69 |
| `O=C(O)C(F)(F)F.[H][C@@]12CCN(c3cnccn3)C[C@]1([H])CN(C(=O)CC)C2` | 9.747 |
| `CC(NCc1ccccc1Cl)c1ccc2[nH]c(=O)[nH]c2c1` (stereo not drawn) | 4.238 |
| `Cn1c(Cn2cccn2)nnc1C1CCCN(c2ccncc2F)C1` (stereo not drawn) | 18.81 |
| `Cc1ccccc1-n1nc(C)c(CN(C)C(C)Cc2ccccn2)c1C.O=C(O)CC(O)(CC(=O)O)C(=O)O` (stereo not drawn) | 3.737 |
| `Cc1ncnc2c1CCN(Cc1cccs1)CC2.O=C(O)C(F)(F)F` | 15.91 |
| `OCCNc1nccc(-c2c[nH]nc2-c2ccco2)n1` | -0.08467 |
| `Cc1nc2n(n1)CC(NCc1csc(-c3ccsc3)n1)CC2` (stereo not drawn) | 10.13 |
| `CCOCC1CN(C(=O)CS(C)(=O)=O)Cc2cnn(C)c21.O=C(O)C(F)(F)F` (stereo not drawn) | -4.87 |
| `CCn1cc(NC(=O)NCC(O)CN2CCCCC2)cn1` (stereo not drawn) | -12.49 |
| `O=C(NCCC1COc2ccccc2O1)c1ccc(N2CC(O)C2)nc1` (stereo not drawn) | -4.462 |
| `CCN(CC)Cc1cc(=O)n2c(n1)CN(C(=O)c1ccnnc1)CCC2.O=C(O)C(F)(F)F` | 6.066 |
| `Cc1ccc2c(c1)c(CNC(=O)C1CC(=O)N(C3CCCC3)C1)nn2C` (stereo not drawn) | -7.412 |
| `[H][C@]12CC[C@](O)(c3cccc(OC)c3)[C@@]1([H])CN(C(=O)c1ccn(C)n1)C2` | -6.416 |
| `NC(=O)C1(Cc2ccccc2-c2ccccc2)CCCN(CC2CC2)C1` (stereo not drawn) | 2.191 |
| `CCCNC(=O)NC(=O)CN1CCN(Cc2nccn2CC)CC1` | -11.25 & 5.615 & -15.37 |
| `NC(=O)C1(CCCc2ccncc2)CCCN1` (stereo not drawn) | 6.477 |
| `O=C(O)C(F)(F)F.O=C(O)C(F)(F)F.O=C(O)C(F)(F)F.[H][C@]12C[C@@H](Cn3cccn3)N(c3nccs3)[C@@]1([H])CCN(C(C)C)C2` | 3.466 |
| `CC(C)Oc1ccc(C(=O)N2CCCC2c2cnn(C)c2)cn1` (stereo not drawn) | 6.25 |
| `Fc1ccccc1-c1nccnc1C1CCCNC1` (stereo not drawn) | 18.54 |
| `O=C(COc1coc(CN2CCCCC2)cc1=O)NCc1ccccc1` | 6.652 |
| `Cc1cnn(CCC(=O)N2CCCN(c3cccnn3)CC2)c1` | -9.785 |
| `COCCn1cc(C(=O)N2CCCC2c2ccncc2)c2ccccc21` (stereo not drawn) | 11.14 |
| `[H][C@@]12CS(=O)(=O)C[C@]1([H])N(Cc1ccncc1)CCN2CCOC` | -1.975 |
| `CC(C)C(=O)N1CCCC(Cc2cccnc2)C1` (stereo not drawn) | 2.917 |
| `O=C(O)C(F)(F)F.[H][C@@]12C[C@H](C(=O)N(C)C)[C@@]([H])(CN(CCc3ccccc3)C1)O2` | 6.397 |
| `O=C(O)C(F)(F)F.[H][C@]12CCC[C@@]1(COC)CN(C(=O)Cc1ccccn1)C2` | 14.85 |
| `Cc1nn(C)c(C)c1-c1ccc(=O)n(C(C)C(=O)NCc2ccco2)n1` (stereo not drawn) | 10.2 |
| `O=C(O)C(F)(F)F.[H][C@@]12CCN(c3nnc(C)s3)C[C@]1([H])O[C@@H](C(=O)NC)C2` | -0.08591 |
| `Cc1ccc(Nc2cc(N3CCN(S(C)(=O)=O)CC3)nc(C)n2)cc1` | 3.361 |
| `Cc1cc(CNc2cc(Cl)ccc2OCCS(C)(=O)=O)no1` | -5.475 |
| `COCC(=O)N1CC(c2n[nH]cc2C)C1` | 3.681 |
| `Cc1nc2cc(C3CCCCN3C(=O)C3CC3)nn2c(O)c1C` (stereo not drawn) | 10.68 |
| `COC(=O)Nc1ccc(CNc2cncc(-n3cccn3)n2)cc1` | -0.1023 |
| `CC(CC(=O)O)CC(=O)Nc1sc2c(c1C(N)=O)CCc1ccccc1-2` (stereo not drawn) | -9.815 & -18.82 |
| `CCSc1nc2ccccc2c(=O)n1OCC(=O)OC` | 3.179 |
| `CC(Cn1ccnc1)NC(=O)N1CCCN(Cc2cccs2)CC1` (stereo not drawn) | -5.762 |
| `CN(C)CCNC(=O)c1ccn(-c2ccc3ccccn23)n1.O=C(O)C(F)(F)F` | 3.893 |
| `Cc1cnc(C(=O)N2CCCC(n3ccnc3C)C2)cn1` (stereo not drawn) | -1.874 |
| `Cc1nc(CN2CCCC(CCc3ccccc3C)C2)c[nH]1` (stereo not drawn) | 0.1103 |

4 of the entries, repeated:

compound	Percent Effect
O=C(O)C(F)(F)F.[H][C@@]12CN(Cc3cccc(C)c3)C[C@]1([H])OCCN2CC(=O)N(C)C	13.49
CN(C)C(CNS(=O)(=O)c1cnn(C)c1)c1cccc(F)c1 (stereo not drawn)	10.54
CCOCC(=O)N1C[C@@H](O)[C@H](N2CCN(c3ccccc3)CC2)C1	2.913
CCN(CC)Cc1cc(=O)n2c(n1)CN(C(=O)c1ccnnc1)CCC2.O=C(O)C(F)(F)F	6.066

Data taken from ChEMBL document CHEMBL3988442, “University of Dundee, Small-Polar-MMV Screening Library” (2021).